Laboratory results: PubChem BioAssay AID652243 (Drosophila RNAi Screening Center, 2013)
The deposit covers about 24,000 reagents; below is an unselected part of those that have a named target and a result. Over the whole deposit, 246 (1%) were called active. 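Plates not normalised; calls are printed but the firefly/Renilla ratio behind them is not deposited; fold cut for lowering reported inconsistently.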 The raw values are shown without normalisation. The record does not give: the amount of reagent.

Screen: 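Knock-downs that decrease or increase androgen receptor reporter signal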 (primary screen)
Cells: Drosophila S2R+ cells
Reagents: long dsRNA against Drosophila genes
Timing: 72 h (48 h, then 24 h hormone)
Conditions: synthetic androgen R1881 at 10 nM for 24 h
Measured: 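Firefly light from an androgen-responsive reporter and Renilla control light per well, raw and unnormalised, for each of two replicates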
Direction: firefly reporter light: higher = more light from androgen-responsive reporter; Renilla control light: higher = more constitutive control signal (cell number, transfection)
Hit rule: 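Across duplicate plates, a knock-down whose log firefly/Renilla ratio shifted a set fold down or up from the GFP/LacZ control mean was a hit; the downward cut appears as both 1.5 and 3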
Calls: active = hit: reporter lowered or raised; inactive = no hit

predicted target	amplicon	firefly reporter light, replicate 1	firefly reporter light, replicate 2	Renilla control light, replicate 1	Renilla control light, replicate 2	Outcome
eIF4E7 (eukaryotic translation initiation factor 4E7)	DRSC17782	4.17e5	3.91e5	4.68e6	3.69e6	inactive
eIF4E7 (eukaryotic translation initiation factor 4E7)	DRSC18623	1.87e5	1.92e5	3.28e6	2.26e6	inactive
CG32445	DRSC11678	1.65e5	1.39e5	2.12e6	1.23e6	inactive
CG1703	DRSC19764	1.34e5	1.17e5	5.53e5	6.90e5	inactive
Esyt2 (Extended synaptotagmin-like protein 2)	DRSC16082	24887	25920	4.20e5	4.06e5	active
CG32079	DRSC22636	6.21e5	7.20e5	1.39e6	1.38e6	inactive
ND-ACP	DRSC08724	1.07e5	1.45e5	1.14e6	1.23e6	inactive
Mur82C (Mucin related 82C)	DRSC12011	91840	54019	2.53e5	2.33e5	inactive
Mur82C (Mucin related 82C)	DRSC12212	6.45e5	7.76e5	9.52e5	9.02e5	inactive
Mur82C (Mucin related 82C)	DRSC23420	9.43e5	1.13e6	8.75e5	9.17e5	inactive
Mur82C (Mucin related 82C)	DRSC39063	5.68e5	4.21e5	1.21e6	9.31e5	inactive
Oatp30B (Organic anion transporting polypeptide 30B)	DRSC02727	6.87e5	3.90e5	2.93e6	2.47e6	active
CG32603	DRSC19409	4.33e5	4.29e5	3.69e6	3.87e6	inactive
CG32603	DRSC21586	3.70e5	4.42e5	1.17e6	1.57e6	inactive
CG32603	DRSC25240	1.01e6	9.73e5	6.64e5	6.20e5	inactive
CG9289	DRSC03187	3.13e5	3.26e5	1.25e6	1.32e6	inactive
CG9289	DRSC28115	6.23e5	5.72e5	1.68e6	1.58e6	inactive
CG34025	DRSC38853	9.66e5	9.28e5	2.05e6	1.79e6	inactive
Klp54D (Kinesin-like protein at 54D)	DRSC07450	64481	50343	1.27e6	1.27e6	inactive
G9a	DRSC18619	2.57e5	3.17e5	3.05e6	2.40e6	inactive
CG31886	DRSC03248	1.57e6	1.28e6	2.84e6	2.43e6	inactive
CG31886	DRSC27420	2.92e5	3.71e5	7.20e5	7.56e5	inactive
eys (eyes shut)	DRSC00402	81236	74478	7.44e5	5.60e5	inactive
eys (eyes shut)	DRSC00403	72787	89054	5.31e5	6.22e5	inactive
eys (eyes shut)	DRSC00695	9.23e5	7.38e5	3.94e6	2.41e6	inactive
Lcp4 (Larval cuticle protein 4)	DRSC07458	4.98e5	4.11e5	2.79e6	1.94e6	inactive
Lcp4 (Larval cuticle protein 4)	DRSC25194	3.47e5	5.02e5	3.26e5	4.64e5	inactive
sug (sugarbabe)	DRSC06855	9.40e5	8.41e5	1.46e6	1.58e6	inactive
sug (sugarbabe)	DRSC29599	3.79e5	5.56e5	8.45e5	8.45e5	inactive
BomBc2 (Bomanin Bicipital 2)	DRSC06502	56132	99778	8.68e5	8.68e5	inactive
BomBc2 (Bomanin Bicipital 2)	DRSC29859	1.24e6	1.13e6	1.78e6	2.02e6	inactive
CG4116	DRSC18348	2.00e5	1.91e5	2.10e6	1.75e6	inactive
CG4116	DRSC29381	4.44e5	5.66e5	1.49e6	1.49e6	inactive
CG4627	DRSC06873	2.78e5	2.65e5	1.39e6	1.63e6	inactive
CG3106	DRSC18279	1.04e5	1.27e5	7.53e5	8.65e5	inactive
CG3106	DRSC29465	4.83e5	3.63e5	8.90e5	8.90e5	inactive
CG12213	DRSC14478	4.55e5	4.63e5	3.17e6	3.42e6	inactive
CG12213	DRSC22109	6.62e5	8.06e5	2.48e6	2.54e6	inactive
CG12213	DRSC25474	1.25e6	1.32e6	1.32e6	1.32e6	inactive
CG42331	DRSC14633	2.49e5	2.63e5	2.16e6	3.25e6	inactive
CG42331	DRSC16126	2.17e5	2.49e5	2.17e6	2.41e6	inactive
CG42331	DRSC25930	3.41e5	3.70e5	7.95e5	6.45e5	inactive

3 entries from above, limited to “Renilla control light, replicate 2”:
CG12213 [DRSC25474]	1.32e6
CG42331 [DRSC14633]	3.25e6
CG42331 [DRSC16126]	2.41e6
